Results are given in words; binding and its absence hold for the method and conditions named. Binding seen in cells or lysates may run through a third protein. Binding calls can cover weak binding; strength is not graded here.
Key:
Test in all cases: pull-down; GST-Dyn1 PRR constructs on GSH-sepharose beads incubated with rat brain synaptosomal (P2) lysate; 20 mM Tris pH 7.4, 150 mM NaCl, 1% Triton X-100, 1 mM EDTA, 1 mM EGTA; 4 °C, 1 h; bound proteins by Western blot with antibodies to Endophilin A and Amphiphysin 1; only the target purified
[1] = target: GST-Dyn1xB-PRR (full-length proline-rich region of Dynamin 1 splice variant xB, 746-851) (rat)
[2] = target: GST-Dyn1xB 794-851 (rat)
[3] = target: GST-Dyn1xB 806-851 (rat)

binding [1]: binds
binding [2]: binds
binding [3]: binds
B1: Amphiphysin 1 (endogenous, rat brain synaptosomes) (protein, UniProt O08838 1-683)
chain: MADIKTGIFAKNVQKRLNRAQEKVLQKLGKADETKDEQFEEYVQNFKRQEAEGTRLQRELRGYLAAIKGMQEASMKLTESLHEVYEPDWYGREDVKMVGEKCDVLWEDFHQKLVDGSLLTLDTYLGQFPDIKNRIAKRSRKLVDYDSARHHLEALQSSKRKDESRISKAEEEFQKAQKVFEEFNVDLQEELPSLWSRRVGFYVNTFKNVSSLEAKFHKEIAVLCHKLYEVMTKLGDQHADKAFSIQGAPSDSGPLRIAKTPSPPEEASPLPSPTASPNHTLAPASPAPVRPRSPSQTRKGPPVPPLPKVTPTKELQQENIINFFEDNFVPEINVTTPSQNEVLEVKKEETLLDLDFDPFKPDVTPAGSAAATHSPMSQTLPWDLWTTSTDLVQPASGGSFNDFTQPQDTSLFTMQTDQNMAETEQALPTEPQAEEPPTTAAAPTAGLDLGLEMEEPKEEAAIPPGTDAGETVGTEGSTGEEAEAEKAALPAGEGESPEGAKIDVESTELASSESPQAAELEAGAPQEKVIPSVVIEPASNHEGEEHQETTTGTETREATEDVAPQGPAGEKQELATEPTPLDSQAATPAPAGAVDASLSAGDAAQELPPGFLYKVETLHDFEAANSDELTLQRGDVVLVVPSDSEADQDAGWLVGVKESDWLQYRDLATYKGLFPENFTRHLE
